According to article PMC3577914:
Results are given in words; binding and its absence hold for the method and conditions named. In cells and extracts the contact can be indirect. Some entries that bind do so weakly or less than the wild type. For part of these data: Where a sequence is shown, tags or fusion partners need not be part of it.

Chains of the proteins cited; added tags and fusions are not shown.
UniProt Q6PFY1: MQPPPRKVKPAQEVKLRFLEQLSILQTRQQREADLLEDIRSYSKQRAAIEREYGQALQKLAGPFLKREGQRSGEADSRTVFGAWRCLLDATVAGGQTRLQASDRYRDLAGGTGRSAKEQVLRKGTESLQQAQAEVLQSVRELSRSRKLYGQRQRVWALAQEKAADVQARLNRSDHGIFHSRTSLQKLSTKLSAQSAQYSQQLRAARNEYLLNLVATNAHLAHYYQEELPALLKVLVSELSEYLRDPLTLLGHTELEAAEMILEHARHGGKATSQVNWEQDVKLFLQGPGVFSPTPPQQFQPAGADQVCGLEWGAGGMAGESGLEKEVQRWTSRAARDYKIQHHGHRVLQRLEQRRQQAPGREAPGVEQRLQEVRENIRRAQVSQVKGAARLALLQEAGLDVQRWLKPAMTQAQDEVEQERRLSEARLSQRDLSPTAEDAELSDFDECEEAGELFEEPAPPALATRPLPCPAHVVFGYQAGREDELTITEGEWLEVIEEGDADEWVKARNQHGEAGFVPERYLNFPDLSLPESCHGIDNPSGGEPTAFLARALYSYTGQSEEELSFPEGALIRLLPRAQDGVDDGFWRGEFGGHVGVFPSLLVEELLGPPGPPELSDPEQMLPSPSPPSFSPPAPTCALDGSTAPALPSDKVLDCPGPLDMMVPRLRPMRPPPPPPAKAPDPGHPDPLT
UniProt Q91VH2: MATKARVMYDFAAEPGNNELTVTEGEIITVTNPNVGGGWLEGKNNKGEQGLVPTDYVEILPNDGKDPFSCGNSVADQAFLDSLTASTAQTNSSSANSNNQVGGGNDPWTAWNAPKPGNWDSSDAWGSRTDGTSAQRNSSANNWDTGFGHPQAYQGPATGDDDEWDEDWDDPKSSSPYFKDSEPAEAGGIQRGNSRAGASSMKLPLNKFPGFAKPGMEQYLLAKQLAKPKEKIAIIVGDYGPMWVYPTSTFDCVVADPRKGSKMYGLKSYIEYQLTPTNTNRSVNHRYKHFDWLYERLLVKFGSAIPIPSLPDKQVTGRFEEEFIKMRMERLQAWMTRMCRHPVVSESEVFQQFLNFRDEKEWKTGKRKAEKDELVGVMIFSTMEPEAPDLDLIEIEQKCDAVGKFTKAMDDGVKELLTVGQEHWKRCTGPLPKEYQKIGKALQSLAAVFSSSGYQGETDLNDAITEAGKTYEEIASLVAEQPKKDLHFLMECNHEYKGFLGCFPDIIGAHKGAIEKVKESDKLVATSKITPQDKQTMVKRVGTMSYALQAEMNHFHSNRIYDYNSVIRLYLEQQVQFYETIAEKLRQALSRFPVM

Assays:
Assay in all cases: co-IP; HEK293 cells transfected with epitope-tagged proteins; lysis in 150 mM NaCl, 50 mM Tris pH 7.5, 1% Triton X-100 or RIPA buffer; anti-Myc antibody with Protein A/G agarose overnight at 4°C; Western blot
[1] = target: FCHSD1 (FCH domain and double SH3 domains containing protein 1), mouse, epitope-tagged full-length (mouse) (UniProt Q6PFY1)
[2] = target: T1, FCHSD2 (FCH domain and double SH3 domains containing protein 2), mouse, epitope-tagged full-length (mouse) (UniProt Q3USJ8)
T1 sequence: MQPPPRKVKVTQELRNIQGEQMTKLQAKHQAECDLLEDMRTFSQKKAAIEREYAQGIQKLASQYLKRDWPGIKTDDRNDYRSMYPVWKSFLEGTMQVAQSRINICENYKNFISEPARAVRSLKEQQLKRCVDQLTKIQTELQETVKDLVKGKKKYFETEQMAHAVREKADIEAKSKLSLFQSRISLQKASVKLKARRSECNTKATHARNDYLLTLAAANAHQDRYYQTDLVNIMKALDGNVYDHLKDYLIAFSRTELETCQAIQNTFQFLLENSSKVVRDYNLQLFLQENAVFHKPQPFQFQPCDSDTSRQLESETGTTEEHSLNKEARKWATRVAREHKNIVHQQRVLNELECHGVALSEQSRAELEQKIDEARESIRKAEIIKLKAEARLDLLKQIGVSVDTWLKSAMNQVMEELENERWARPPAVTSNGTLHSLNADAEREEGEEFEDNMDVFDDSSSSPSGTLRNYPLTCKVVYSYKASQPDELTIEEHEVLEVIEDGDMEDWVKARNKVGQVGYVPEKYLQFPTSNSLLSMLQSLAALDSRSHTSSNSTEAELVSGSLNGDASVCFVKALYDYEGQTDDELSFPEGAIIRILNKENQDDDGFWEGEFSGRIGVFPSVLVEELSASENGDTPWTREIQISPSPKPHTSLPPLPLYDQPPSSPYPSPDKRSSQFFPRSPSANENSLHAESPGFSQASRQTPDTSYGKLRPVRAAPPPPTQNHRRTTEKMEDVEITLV

[3] = target: Sorting Nexin 9 (SNX9), mouse, epitope-tagged (mouse) (UniProt Q91VH2)

binding [1]: binds | binding [2]: binds | binding [3]: binds
Substance: FCHSD1 (FCH domain and double SH3 domains containing protein 1), mouse, epitope-tagged full-length (from UniProt Q6PFY1 1-688)
